Laboratory results as given in article PMC8011926 (Journal of Medicinal Chemistry, 2020).
Results are given in words; binding and its absence hold for the method and conditions named. In cells and extracts the contact can be indirect. Some binding calls cover weakened binding; strength is not graded here.

Chains of the proteins cited; added tags and fusions are not shown.
UniProt P41146: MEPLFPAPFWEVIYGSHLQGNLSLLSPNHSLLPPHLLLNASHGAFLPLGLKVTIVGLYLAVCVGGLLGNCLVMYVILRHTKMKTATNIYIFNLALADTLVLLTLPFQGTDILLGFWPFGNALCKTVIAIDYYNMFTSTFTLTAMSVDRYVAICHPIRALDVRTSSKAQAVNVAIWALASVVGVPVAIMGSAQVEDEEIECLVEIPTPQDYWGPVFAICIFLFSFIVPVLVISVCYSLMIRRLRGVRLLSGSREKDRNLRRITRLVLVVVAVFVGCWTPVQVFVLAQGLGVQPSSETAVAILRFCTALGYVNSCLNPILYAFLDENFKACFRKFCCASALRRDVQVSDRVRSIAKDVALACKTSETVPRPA
UniProt P35372: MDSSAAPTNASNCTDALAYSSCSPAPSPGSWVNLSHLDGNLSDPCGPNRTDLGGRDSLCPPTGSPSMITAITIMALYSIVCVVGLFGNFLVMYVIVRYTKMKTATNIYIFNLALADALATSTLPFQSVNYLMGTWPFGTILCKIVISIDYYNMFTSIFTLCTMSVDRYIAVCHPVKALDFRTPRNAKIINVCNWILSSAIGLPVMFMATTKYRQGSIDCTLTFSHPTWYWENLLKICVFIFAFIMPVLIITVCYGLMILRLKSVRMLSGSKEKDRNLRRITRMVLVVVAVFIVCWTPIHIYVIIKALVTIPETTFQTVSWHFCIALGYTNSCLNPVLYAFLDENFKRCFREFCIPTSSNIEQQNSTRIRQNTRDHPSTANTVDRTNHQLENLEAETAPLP
UniProt P62873: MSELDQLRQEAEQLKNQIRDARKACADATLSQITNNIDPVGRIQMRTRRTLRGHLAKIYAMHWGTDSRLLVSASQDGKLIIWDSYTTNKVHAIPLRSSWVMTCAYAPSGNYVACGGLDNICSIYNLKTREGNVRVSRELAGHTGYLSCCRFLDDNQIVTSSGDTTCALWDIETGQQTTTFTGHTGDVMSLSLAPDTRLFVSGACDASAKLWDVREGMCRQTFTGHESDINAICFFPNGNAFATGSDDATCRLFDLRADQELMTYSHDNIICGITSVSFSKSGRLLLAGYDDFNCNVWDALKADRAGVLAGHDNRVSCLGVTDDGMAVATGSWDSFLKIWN
UniProt P32121: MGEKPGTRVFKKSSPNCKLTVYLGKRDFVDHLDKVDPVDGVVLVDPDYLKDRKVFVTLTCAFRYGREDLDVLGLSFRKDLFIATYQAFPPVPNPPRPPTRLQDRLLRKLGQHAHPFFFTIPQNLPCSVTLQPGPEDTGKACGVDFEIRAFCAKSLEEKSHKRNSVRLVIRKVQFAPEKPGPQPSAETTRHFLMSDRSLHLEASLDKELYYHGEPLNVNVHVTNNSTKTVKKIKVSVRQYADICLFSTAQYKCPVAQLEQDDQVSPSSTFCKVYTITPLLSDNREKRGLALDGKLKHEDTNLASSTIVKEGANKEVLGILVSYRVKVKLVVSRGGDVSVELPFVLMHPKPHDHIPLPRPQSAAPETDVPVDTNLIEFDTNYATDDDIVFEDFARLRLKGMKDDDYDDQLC

How the values were obtained:
[1] = biological target: N/OFQ peptide (NOP) receptor fused to Renilla luciferase (UniProt P41146); assay: FRET or BRET; membranes (3 μg of protein) from HEK293 cells co-expressing NOP-RLuc and Gβ1-RGFP, in DPBS; coelenterazine 5 μM; agonist peptide added; stimulated BRET ratio; room temperature
[2] = biological target: N/OFQ peptide (NOP) receptor fused to Renilla luciferase (UniProt P41146); assay: FRET or BRET; whole HEK293 cells co-expressing NOP-RLuc and β-arrestin 2-RGFP, PBS with MgCl2 0.5 mM and CaCl2 0.9 mM; coelenterazine 5 μM; agonist peptide added; stimulated BRET ratio; room temperature
[3] = biological target: mu opioid receptor fused to Renilla luciferase (UniProt P35372); assay: FRET or BRET; whole SH-SY5Y cells co-expressing mu-RLuc or delta-RLuc and β-arrestin 2-RGFP, PBS with MgCl2 0.5 mM and CaCl2 0.9 mM; coelenterazine 5 μM; agonist peptide added; stimulated BRET ratio; room temperature

For “Gβ1 fused to RGFP (from UniProt P62873 1-340)”, the binding [1] was “binds”.

With “β-arrestin 2 fused to RGFP (from UniProt P32121 1-409)” the binding [2] was “binds” and the binding [3] was “binds”.
